In assay [1] the target is INTS5 (N-terminally 8xHis-tagged), recombinant (UniProt Q6P9B9). Briefly: SEC; subunits co-expressed in Hi5 insect cells, complex purified by Ni-NTA and streptavidin agarose, 50 uL at 1-2 mg/ml on Superose 6 Increase 3.2/300 in 150 mM KCl, 20 mM HEPES KOH pH 7.8; fractions on SDS-PAGE; both purified.
In assay [2] the target is INTS4 (N-terminally 8xHis-tagged), recombinant (UniProt Q96HW7). Briefly: cryo-EM structure; INTS4/9/11 co-expressed in insect cells, tandem affinity purified, cross-linked with glutaraldehyde on a glycerol gradient (GraFix); single-particle cryo-EM, 3.5 Å overall; both purified.
Assay [3] has the same target. Briefly: SEC; subunits co-expressed in Hi5 insect cells, complex purified by Ni-NTA and streptavidin agarose, 50 uL at 1-2 mg/ml on Superose 6 Increase 3.2/300 in 150 mM KCl, 20 mM HEPES KOH pH 7.8; fractions on SDS-PAGE; both purified.
The target in assay [4] is INTS4/9/11 ternary complex (Integrator cleavage module), recombinant (UniProt Q96HW7). The experiment in a line: SEC; purified modules mixed in 1:1 molar ratio, 30 min on ice, Superose 6 Increase 3.2/300 in 150 mM KCl, 20 mM HEPES KOH pH 7.8; shift in elution volume; both purified.
For assay [5], the target named is INTS4/9/11 module co-expressed with INTS10/13/14 (one tag on each module) (UniProt Q96HW7). The experiment in a line: pull-down; modules INTS4/9/11 and INTS10/13/14 co-expressed in Hi5 cells, tandem affinity purification with one tag on each module.
Assay [6] deals with INTS10 (N-terminally 8xHis-tagged), recombinant (UniProt Q9NVR2). The experiment in a line: SEC; subunits co-expressed in Hi5 insect cells, complex purified by Ni-NTA and streptavidin agarose, 50 uL at 1-2 mg/ml on Superose 6 Increase 3.2/300 in 150 mM KCl, 20 mM HEPES KOH pH 7.8; fractions on SDS-PAGE; both purified.
Assay [7] deals with INTS13 (N-terminally SBP-tagged), recombinant (UniProt Q9NVM9). The description is as above.

Amino acid sequences for entries named in this document (tags omitted).
UniProt Q6P9B9: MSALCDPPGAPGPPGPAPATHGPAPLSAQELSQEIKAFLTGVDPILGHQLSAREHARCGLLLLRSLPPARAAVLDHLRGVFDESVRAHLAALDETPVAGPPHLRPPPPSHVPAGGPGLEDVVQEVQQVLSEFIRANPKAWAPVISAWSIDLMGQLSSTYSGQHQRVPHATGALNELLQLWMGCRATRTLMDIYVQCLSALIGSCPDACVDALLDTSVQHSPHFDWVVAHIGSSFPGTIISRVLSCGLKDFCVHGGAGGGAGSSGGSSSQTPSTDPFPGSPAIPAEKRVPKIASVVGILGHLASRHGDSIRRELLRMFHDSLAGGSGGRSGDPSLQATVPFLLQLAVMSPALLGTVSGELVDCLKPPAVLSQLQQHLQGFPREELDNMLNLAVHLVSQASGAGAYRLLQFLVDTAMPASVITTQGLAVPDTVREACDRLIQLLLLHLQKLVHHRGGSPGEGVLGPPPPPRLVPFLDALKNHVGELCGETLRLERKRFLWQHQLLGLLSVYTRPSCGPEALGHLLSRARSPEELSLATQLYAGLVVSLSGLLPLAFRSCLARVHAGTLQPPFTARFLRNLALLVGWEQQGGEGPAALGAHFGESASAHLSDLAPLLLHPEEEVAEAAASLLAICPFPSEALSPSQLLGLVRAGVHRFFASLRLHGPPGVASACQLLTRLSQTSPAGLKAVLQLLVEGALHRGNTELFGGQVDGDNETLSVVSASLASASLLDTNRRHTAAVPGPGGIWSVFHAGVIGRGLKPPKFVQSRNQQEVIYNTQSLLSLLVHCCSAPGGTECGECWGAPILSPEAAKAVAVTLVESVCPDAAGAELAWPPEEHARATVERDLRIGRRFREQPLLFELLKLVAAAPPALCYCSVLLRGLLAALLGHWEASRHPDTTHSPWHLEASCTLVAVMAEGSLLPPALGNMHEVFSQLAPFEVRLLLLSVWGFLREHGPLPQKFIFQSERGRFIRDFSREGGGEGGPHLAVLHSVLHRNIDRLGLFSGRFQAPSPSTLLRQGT
UniProt Q96HW7: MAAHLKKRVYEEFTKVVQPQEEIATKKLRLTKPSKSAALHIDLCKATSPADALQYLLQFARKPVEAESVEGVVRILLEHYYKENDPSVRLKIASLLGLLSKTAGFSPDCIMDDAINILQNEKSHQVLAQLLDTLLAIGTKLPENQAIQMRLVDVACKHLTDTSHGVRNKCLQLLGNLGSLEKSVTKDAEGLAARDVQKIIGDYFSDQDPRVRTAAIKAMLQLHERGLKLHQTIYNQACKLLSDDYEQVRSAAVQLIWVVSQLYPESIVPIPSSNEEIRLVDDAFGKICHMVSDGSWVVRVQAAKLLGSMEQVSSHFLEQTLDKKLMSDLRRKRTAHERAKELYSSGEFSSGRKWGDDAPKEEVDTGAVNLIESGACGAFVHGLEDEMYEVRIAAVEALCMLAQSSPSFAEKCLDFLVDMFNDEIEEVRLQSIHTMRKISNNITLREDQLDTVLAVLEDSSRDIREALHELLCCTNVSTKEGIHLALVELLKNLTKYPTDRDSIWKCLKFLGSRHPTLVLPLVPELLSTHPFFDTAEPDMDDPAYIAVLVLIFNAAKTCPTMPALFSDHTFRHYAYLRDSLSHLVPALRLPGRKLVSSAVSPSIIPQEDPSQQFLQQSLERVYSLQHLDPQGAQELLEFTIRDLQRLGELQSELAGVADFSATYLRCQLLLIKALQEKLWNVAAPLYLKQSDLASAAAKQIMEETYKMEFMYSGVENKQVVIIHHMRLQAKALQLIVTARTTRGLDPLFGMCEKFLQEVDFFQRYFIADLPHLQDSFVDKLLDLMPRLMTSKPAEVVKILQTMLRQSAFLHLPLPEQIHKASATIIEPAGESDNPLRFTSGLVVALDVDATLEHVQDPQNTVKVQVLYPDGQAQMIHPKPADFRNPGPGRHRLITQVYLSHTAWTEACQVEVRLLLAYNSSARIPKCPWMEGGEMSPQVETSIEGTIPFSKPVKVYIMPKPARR
UniProt Q9NVR2: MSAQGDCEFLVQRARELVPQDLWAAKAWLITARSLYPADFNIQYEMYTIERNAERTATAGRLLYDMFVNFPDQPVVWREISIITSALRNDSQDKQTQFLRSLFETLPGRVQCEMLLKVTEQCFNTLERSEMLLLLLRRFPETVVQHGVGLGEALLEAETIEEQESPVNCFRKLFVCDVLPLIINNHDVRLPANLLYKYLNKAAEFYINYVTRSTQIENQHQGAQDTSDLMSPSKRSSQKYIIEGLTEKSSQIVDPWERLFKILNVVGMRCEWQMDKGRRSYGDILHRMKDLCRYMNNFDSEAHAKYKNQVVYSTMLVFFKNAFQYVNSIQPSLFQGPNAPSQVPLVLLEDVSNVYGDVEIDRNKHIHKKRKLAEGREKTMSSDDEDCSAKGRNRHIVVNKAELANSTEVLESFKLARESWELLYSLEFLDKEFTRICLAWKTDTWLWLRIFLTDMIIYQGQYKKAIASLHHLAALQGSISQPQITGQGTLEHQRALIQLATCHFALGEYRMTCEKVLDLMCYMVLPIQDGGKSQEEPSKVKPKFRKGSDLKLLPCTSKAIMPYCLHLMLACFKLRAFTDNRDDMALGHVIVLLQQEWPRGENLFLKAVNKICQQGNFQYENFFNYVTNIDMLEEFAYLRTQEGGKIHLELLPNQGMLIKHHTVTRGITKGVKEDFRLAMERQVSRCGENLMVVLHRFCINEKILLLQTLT
UniProt Q9NVM9: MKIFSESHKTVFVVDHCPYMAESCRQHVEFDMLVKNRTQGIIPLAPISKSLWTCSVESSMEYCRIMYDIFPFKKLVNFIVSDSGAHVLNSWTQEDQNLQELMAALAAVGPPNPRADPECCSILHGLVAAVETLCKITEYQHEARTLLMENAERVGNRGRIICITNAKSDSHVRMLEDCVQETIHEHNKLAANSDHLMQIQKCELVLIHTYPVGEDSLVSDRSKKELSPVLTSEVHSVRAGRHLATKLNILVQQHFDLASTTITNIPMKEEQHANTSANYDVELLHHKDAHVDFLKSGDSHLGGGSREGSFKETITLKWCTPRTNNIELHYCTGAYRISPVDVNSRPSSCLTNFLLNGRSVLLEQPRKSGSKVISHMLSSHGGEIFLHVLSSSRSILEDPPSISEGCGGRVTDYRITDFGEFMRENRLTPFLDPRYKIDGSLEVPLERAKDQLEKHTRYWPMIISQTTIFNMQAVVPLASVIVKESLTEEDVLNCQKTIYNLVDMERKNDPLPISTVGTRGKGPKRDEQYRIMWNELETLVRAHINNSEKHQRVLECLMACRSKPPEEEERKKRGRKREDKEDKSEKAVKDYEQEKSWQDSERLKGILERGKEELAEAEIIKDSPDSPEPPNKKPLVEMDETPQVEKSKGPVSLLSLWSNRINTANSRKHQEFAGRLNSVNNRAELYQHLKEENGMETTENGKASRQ
UniProt Q75QN2: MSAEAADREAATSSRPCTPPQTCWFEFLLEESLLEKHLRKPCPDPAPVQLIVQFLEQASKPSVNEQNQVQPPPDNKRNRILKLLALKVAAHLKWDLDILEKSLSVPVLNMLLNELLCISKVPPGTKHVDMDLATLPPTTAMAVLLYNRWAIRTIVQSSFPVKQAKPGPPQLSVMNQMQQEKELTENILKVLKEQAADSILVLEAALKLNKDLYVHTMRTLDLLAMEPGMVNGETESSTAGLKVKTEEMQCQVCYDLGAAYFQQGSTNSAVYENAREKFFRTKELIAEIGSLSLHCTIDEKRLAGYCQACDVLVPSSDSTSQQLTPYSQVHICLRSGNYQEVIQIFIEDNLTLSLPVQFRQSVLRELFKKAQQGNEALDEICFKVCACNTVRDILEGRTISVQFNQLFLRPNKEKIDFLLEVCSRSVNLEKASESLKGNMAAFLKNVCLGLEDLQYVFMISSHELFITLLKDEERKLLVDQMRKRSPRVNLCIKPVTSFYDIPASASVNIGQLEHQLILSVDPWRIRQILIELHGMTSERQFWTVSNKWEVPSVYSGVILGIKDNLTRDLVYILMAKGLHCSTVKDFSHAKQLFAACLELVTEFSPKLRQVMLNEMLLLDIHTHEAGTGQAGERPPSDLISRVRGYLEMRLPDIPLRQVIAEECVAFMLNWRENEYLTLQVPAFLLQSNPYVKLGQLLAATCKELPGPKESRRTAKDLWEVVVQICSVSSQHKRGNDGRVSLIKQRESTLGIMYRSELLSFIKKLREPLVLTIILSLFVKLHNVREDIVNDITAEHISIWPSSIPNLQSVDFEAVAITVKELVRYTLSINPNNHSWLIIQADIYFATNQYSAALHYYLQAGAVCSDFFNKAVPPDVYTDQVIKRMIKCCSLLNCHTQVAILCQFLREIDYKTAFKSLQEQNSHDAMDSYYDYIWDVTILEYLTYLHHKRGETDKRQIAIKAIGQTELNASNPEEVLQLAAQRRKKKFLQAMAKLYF
UniProt Q9NV88: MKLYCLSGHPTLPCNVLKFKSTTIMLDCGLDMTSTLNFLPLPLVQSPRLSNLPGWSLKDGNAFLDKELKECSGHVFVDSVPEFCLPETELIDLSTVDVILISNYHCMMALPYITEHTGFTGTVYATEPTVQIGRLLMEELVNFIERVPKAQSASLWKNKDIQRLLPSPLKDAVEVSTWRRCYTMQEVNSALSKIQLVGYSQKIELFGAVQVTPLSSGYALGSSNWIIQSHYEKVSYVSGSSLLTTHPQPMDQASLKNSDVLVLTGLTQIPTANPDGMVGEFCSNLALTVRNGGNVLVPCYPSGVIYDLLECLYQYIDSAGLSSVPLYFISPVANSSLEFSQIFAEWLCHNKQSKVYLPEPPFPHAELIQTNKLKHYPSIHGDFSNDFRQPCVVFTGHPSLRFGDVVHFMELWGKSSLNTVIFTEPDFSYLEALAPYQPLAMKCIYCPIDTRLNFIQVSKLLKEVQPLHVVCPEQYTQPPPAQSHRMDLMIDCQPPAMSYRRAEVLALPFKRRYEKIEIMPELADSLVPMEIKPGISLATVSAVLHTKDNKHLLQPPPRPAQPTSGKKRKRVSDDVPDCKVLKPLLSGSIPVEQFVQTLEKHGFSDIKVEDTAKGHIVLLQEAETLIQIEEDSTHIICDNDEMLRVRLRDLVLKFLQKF
UniProt Q96SY0: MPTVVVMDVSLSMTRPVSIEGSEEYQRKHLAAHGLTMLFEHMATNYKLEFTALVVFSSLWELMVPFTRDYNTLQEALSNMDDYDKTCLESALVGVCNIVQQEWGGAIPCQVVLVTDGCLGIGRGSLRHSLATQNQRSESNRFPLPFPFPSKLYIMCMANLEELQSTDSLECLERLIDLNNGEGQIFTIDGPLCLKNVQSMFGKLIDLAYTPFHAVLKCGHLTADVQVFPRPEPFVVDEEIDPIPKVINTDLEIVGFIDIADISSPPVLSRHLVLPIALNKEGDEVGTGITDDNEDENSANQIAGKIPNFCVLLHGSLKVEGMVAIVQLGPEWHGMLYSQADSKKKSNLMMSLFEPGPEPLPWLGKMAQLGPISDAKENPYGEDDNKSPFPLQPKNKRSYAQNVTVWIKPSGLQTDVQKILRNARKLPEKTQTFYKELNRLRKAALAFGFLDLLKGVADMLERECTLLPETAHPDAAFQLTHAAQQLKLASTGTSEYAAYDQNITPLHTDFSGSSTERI

Experimental findings from PMC7980224 are described below.

No constants are given. Whether binding was seen depends on the method and setting. For some of these results: Binding seen in cells or lysates may run through a third protein. Some results given as binding are weak or reduced against the parent protein; the word gives no strength.

Turning to “INTS8 (N-terminally SBP-tagged), recombinant (from UniProt Q75QN2 1-995)”, the binding result in assay [1] is reported as “binds”.
For the substance “INTS9, recombinant (from UniProt Q9NV88 1-658)”, the binding result in assay [2] and in assay [3] was “binds” in each case.
For “INTS10/13/14 complex, recombinant (from UniProt Q9NVR2 1-710; Q9NVM9 1-706; Q96SY0 1-518)”, in assay [4], the binding entry is recorded as “binds”.
For “INTS10/13/14 module co-expressed with INTS4/9/11 (one tag on each module) (from UniProt Q9NVR2 1-710; Q9NVM9 1-706; Q96SY0 1-518) (complex)”, the binding result in assay [5] is on record as “binds”.
On to “INTS13 (N-terminally SBP-tagged), recombinant (from UniProt Q9NVM9 1-706)”, for which the binding entry in assay [6] is on record as “binds”.
With “INTS14, recombinant (from UniProt Q96SY0 1-518)”, the binding result in assay [7] is reported as “binds”.
